This passage reports binding results from patent US20080124335A1 (NATIONAL CEREBRAL AND CARDIOVASCULAR CENTER, published 2008).

These are yes or no findings as the source states them, for the method shown. A result given as binding can be weak or reduced; the word gives no strength.

The target in the assay is human FM-3 (human). Kind of assay: conclusion drawn from the receptor binding test and the calcium assay.

With ILQRGSGTAAVDFTKKDHTATWGRPFFLFRPRN [human neuromedin S], the binding entry is reported as “binds”.
